In patent US20200339692A1:
Results are given in words; binding and its absence hold for the method and conditions named. Some entries that bind do so weakly or less than the wild type.

Chains of the proteins cited; added tags and fusions are not shown. Lines headed by an entry give the natural chain unless they say otherwise; changes in a name come on top. Residues count along the entry.
UniProt Q9NZQ7, residues 19-239: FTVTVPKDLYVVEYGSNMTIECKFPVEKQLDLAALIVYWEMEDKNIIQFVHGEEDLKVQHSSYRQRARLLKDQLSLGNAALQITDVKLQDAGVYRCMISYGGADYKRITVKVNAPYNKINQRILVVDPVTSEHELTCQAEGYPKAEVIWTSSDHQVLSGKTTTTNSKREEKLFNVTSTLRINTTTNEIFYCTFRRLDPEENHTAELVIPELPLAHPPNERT

Molecular target: human PD-L1 (Cat. #10084-H08H, Sino Biological) (human) (UniProt Q9NZQ7)
Test: SPR, Biacore X100

B1: H14L61 (antibody, human IgG1, kappa, V domains shown)
VH: QVQLVQSGAEVKKPGASVKVSCKASGYTFTSYWMHWVRQAPGQGLEWMGRIHPSLGLPLYNEKFKNRVTMTRDTSTSTVYMELSSLRSEDTAVYYCARGGSSYDYFDYWGQGTTVTVSS
VL: DIVLTQSPASLAVSPGQRATITCRASESVSIHGTHLMHWYQQKPGQPPKLLIYAASNLESGVPARFSGSGSGTDFTLTINPVEAEDTANYYCQQSFEDPLTFGQGTKLEIKR
Q: For B1, which binding is on record?
A: binds
